The text below walks through data of PMC7819943, “Rice protein-binding microarrays: a tool to detect cis-acting elements near promoter regions in rice”.

Amino acid sequences for entries named in this document (tags omitted).
UniProt Q0JBA9, entry or part of it: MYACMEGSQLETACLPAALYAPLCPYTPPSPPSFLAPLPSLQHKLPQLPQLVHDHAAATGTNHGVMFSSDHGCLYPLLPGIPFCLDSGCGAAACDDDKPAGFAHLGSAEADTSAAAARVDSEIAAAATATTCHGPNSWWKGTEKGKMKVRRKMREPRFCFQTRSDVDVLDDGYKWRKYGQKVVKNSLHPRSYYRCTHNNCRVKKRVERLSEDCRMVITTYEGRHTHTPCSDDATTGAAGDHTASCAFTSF

The other results are listed elsewhere or left out.

This assay concerns the target OsWRKY34 (Oryza sativa, UniProt Q0JBA9 1-250). The experiment in a line: protein-binding microarray (RPBM); PBS, 2% BSA, 51.3 ng/ul salmon testes DNA, 50 uM zinc acetate, 200 nM TF, 25 C, 1 h; high values mean tight binding. Conditions: protein: recombinant; tags: N-terminal polyhistidine and DsRed monomer fusion (pET32a); label: CyDye5-dUTP incorporated in the synthesized complementary strand; 3' TTTTT single-stranded linker to array surface; dsDNA, one strand shown. In outline:
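Transcription factors, each fused N-terminally to a polyhistidine tag and DsRed, were expressed in E. coli BL21-CodonPlus and purified on Ni–NTA. A custom Agilent array was made double-stranded by primer extension with Cy5-dUTP and blocked with 2% BSA. It was incubated with 200 nM protein in PBS, 2% BSA, salmon testes DNA and 50 µM zinc acetate at 25 °C for 1 h, then washed. The binding signal is per-feature fluorescence intensity (arbitrary units) read on an Axon 4000B scanner.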
As to “ACCGCTTTTCGATAGTGGGCCCACCTGGTTTTGTTTGCGTCGGAGTCACCTAGTGCAG”, the binding signal was 10200 fluorescence intensity (a.u.).

In the case of “ATCTTTTTTCTTAGGTTTCACATCTGCCTCTTTTTAAACACGGAGTCACCTAGTGCAG”, the binding signal is 10100 fluorescence intensity (a.u.).

Consider “GTCGGGTTCGGGTACTGTTGATGCTGATCGAGATGGTCCTCGGAGTCACCTAGTGCAG”, for which the binding signal was 8650 fluorescence intensity (a.u.). The value for “GCACTCCCATTCACATTCCCACTCGCACTCCCATTCTCATCGGAGTCACCTAGTGCAG” was 11700 fluorescence intensity (a.u.). The figure for “CTTTTTTATCGCTGCGTCCAATCCTAATCCACTATTTATGCGGAGTCACCTAGTGCAG” is 8240 fluorescence intensity (a.u.).

Turning to “TTGCCATCACCATCTCCATCTCTCTCTCCTCTCCTATTCTCGGAGTCACCTAGTGCAG”, the binding signal was 12900 fluorescence intensity (a.u.). As for “TCCTCTCTCCACTACCAACCTCTCGCGGAGACCCAAACCCCGGAGTCACCTAGTGCAG”, the binding signal was 9700 fluorescence intensity (a.u.). The figure for “AACCAGCTCGTCAATTAATTATTGTGATTACGTTTCATCTCGGAGTCACCTAGTGCAG” is 8060 fluorescence intensity (a.u.); for “GCTCCTTTTGTTGGGAATATTTGTAATTCTTGGCGGAATTCGGAGTCACCTAGTGCAG” it is 13100 fluorescence intensity (a.u.).

On to “AAGTACTGATAAACTCTGATGTTTTATTATTTTTTTTCTTCGGAGTCACCTAGTGCAG”, for which the binding signal was 10400 fluorescence intensity (a.u.). The figure for “GCCAACTTGCGCTAATCTTACCTCTCGGTCACATGCAACACGGAGTCACCTAGTGCAG” is 9560 fluorescence intensity (a.u.); for “TCCGTCAGCCACCGAATTTGTTTGCCTCTCTCAGCATCAGCGGAGTCACCTAGTGCAG” it is 8050 fluorescence intensity (a.u.). The figure for “AAGTTGCATCCGGTGCATTTCCTGCGTACCTTAAATTTCTCGGAGTCACCTAGTGCAG” is 8110 fluorescence intensity (a.u.); for “GCCCATATATTTGCCCAAAAATCAGCCCATATCGATTTTTCGGAGTCACCTAGTGCAG” it is 8190 fluorescence intensity (a.u.); for “CTCAAGTGTTTCTGCCATTTTGACTCGAACCCATCCACGGCGGAGTCACCTAGTGCAG” it is 8180 fluorescence intensity (a.u.). With “CCATGTTGACCGCCACCTCACCTCCTCCCCTTCCCTTCCCCGGAGTCACCTAGTGCAG”, the binding signal is 9930 fluorescence intensity (a.u.). For the sequence “TATCCGGCCATCCTCCCCATCCATCCGCCGTGCTGCTGCCCGGAGTCACCTAGTGCAG”, the binding signal is 8290 fluorescence intensity (a.u.). Turning to “TTTTTCCAAAATTTTAACTGTTTTTTTTCGTCGAGGGTAACGGAGTCACCTAGTGCAG”, the binding signal is 8610 fluorescence intensity (a.u.). Regarding “AATTGCACACATAGTTACCTACCTTACCTACCTCTTCAGGCGGAGTCACCTAGTGCAG”, the binding signal is 8250 fluorescence intensity (a.u.). The figure for “CCTACCTACGCTGGTTTAATTAATTCATAGCTAGCTCGCCCGGAGTCACCTAGTGCAG” is 8620 fluorescence intensity (a.u.); for “CTGTTCGTATTTGCCAACTATTGTGTTTATGCGCATATTTCGGAGTCACCTAGTGCAG” it is 11900 fluorescence intensity (a.u.). Consider “GCCGCCGTCTCGTCGCCCTTCCTCTCTCGCTCATTTTCGCCGGAGTCACCTAGTGCAG”, for which the binding signal is 8350 fluorescence intensity (a.u.).

Regarding “GGTTTCTTACTGTTTACGTTGTTTGCACCTGCAGCGGTCGCGGAGTCACCTAGTGCAG”, the binding signal is 9870 fluorescence intensity (a.u.). The value for “TTTCTATAAACTTGGTCAAACTTAAAGCAGTTTGACTTTGCGGAGTCACCTAGTGCAG” was 11900 fluorescence intensity (a.u.); that for “CTTCCTTCCTAACGTATCGCCCACATTCCTCCACGTCTCCCGGAGTCACCTAGTGCAG” was 8980 fluorescence intensity (a.u.); that for “TGTGGGACGATGGGGAGGTGTGGGGACGCACGCGGGGCGACGGAGTCACCTAGTGCAG” was 10200 fluorescence intensity (a.u.). The value for “CAGAGCGACTTCCCCAATCCATCATCCCGTCTCCGTCCTCCGGAGTCACCTAGTGCAG” was 8830 fluorescence intensity (a.u.). With “GCTTAATCACATTGTTGCGCCCCTTCTTATCCTCTTCTTGCGGAGTCACCTAGTGCAG”, the binding signal is 10600 fluorescence intensity (a.u.). The value for “TTGGGTTCAGGCTTTAATTTTTTTTCAATTCATCAGGCGTCGGAGTCACCTAGTGCAG” was 8740 fluorescence intensity (a.u.); that for “TTGCGTGTTGTTATTACTCCTTGGATCGACTCGGCCAGCACGGAGTCACCTAGTGCAG” was 9930 fluorescence intensity (a.u.); that for “TTCCTTTAATATGCACCCACCAGCTGTCAAGTCAGCGCCTCGGAGTCACCTAGTGCAG” was 8050 fluorescence intensity (a.u.). The value for “TTAAGTGGGTGGTGGAGTCGGAGGGGACTCGGCATGGTTGCGGAGTCACCTAGTGCAG” was 9900 fluorescence intensity (a.u.); that for “ATTTTGGCCTTTTTCTTTTACTTGGTCAAGTTTGGTTATACGGAGTCACCTAGTGCAG” was 10200 fluorescence intensity (a.u.); that for “TGAGAGAAGCACCCATGGAACACATCAGGATACACTGTTTCGGAGTCACCTAGTGCAG” was 8230 fluorescence intensity (a.u.). The figure for “ATATATATATATATATATATATCCATGGCTGAAAAATACCCGGAGTCACCTAGTGCAG” is 9920 fluorescence intensity (a.u.); for “GGCCTTAGTGCCAGAACCTGTTTATTTCTTCTGTTTTATACGGAGTCACCTAGTGCAG” it is 9420 fluorescence intensity (a.u.); for “CATGTTTTGGATACACTCCACGTTGATCTAGTCTCATATGCGGAGTCACCTAGTGCAG” it is 8730 fluorescence intensity (a.u.).

In the case of “GTCTAATTTGGTCCATTTCTTCAATCCCCGCCATTAATACCGGAGTCACCTAGTGCAG”, the binding signal was 9340 fluorescence intensity (a.u.). The figure for “GTAGTTTGGGCTTCGTGGAATTTAGCCTGCTCATTGCAACCGGAGTCACCTAGTGCAG” is 8660 fluorescence intensity (a.u.); for “TTCACTAAACGGAACATGGTTTGCTTGCTTGAACGGTCATCGGAGTCACCTAGTGCAG” it is 9160 fluorescence intensity (a.u.). For the sequence “CCTCGTCAACCGCATCTTTCCCTTTTCGCTTCTCTCGAGACGGAGTCACCTAGTGCAG”, the binding signal was 10400 fluorescence intensity (a.u.). Take “ACCCTTCTTTCAGAATGCATGAGGCTCGAGCACTTGTCTTCGGAGTCACCTAGTGCAG”: the binding signal is 8140 fluorescence intensity (a.u.).
